In article PMC9170289:
These are yes or no findings as the source states them, for the method shown. Some entries that bind do so weakly or less than the wild type.

Key:
Experiment in all cases: two-hybrid; GAL4(DB) fusion and GAL4(AD) fusion cotransformed into the wild-type tester strain GGY1::171; X-Gal colony colour on SSX plates, 30°C; pairs said to be unaffected were also tested in upf1Δ, pat1Δ, scd6Δ, edc3Δ or dcp2-N245 derivatives
[1] = target: T1, Dcp2 fragment N101-300 (S. cerevisiae) (UniProt P53550)
T1 sequence: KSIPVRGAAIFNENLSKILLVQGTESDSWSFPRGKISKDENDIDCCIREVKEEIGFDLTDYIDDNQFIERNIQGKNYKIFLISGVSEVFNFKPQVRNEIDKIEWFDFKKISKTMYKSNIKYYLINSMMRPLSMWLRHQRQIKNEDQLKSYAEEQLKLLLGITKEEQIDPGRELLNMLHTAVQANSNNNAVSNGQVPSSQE

Pat1 (S. cerevisiae) = target: T2, Pat1 (S. cerevisiae) (UniProt P25644)
T2 sequence: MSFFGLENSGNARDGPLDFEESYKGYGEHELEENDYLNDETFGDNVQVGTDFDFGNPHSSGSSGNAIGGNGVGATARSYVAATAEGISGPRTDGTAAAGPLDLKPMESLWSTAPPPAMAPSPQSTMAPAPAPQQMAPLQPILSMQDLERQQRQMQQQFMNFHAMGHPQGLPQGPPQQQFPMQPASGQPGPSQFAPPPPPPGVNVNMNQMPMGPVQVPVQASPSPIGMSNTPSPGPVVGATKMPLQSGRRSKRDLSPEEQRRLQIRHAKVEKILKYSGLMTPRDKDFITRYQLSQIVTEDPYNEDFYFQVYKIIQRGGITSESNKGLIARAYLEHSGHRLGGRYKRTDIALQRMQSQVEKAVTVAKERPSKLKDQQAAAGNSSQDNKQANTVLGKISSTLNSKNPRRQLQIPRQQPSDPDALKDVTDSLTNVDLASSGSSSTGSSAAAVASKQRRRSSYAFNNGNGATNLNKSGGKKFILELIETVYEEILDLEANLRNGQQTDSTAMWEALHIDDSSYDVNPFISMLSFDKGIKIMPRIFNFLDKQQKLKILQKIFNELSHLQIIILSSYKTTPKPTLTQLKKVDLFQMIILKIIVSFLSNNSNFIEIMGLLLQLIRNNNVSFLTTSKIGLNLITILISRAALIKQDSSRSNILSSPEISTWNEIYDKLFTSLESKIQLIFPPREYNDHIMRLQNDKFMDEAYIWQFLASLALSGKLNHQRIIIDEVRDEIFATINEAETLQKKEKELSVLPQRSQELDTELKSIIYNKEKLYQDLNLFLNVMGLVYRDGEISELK

[2] = target: T3, Dcp2, wild-type full length (S. cerevisiae) (UniProt P53550)
T3 sequence: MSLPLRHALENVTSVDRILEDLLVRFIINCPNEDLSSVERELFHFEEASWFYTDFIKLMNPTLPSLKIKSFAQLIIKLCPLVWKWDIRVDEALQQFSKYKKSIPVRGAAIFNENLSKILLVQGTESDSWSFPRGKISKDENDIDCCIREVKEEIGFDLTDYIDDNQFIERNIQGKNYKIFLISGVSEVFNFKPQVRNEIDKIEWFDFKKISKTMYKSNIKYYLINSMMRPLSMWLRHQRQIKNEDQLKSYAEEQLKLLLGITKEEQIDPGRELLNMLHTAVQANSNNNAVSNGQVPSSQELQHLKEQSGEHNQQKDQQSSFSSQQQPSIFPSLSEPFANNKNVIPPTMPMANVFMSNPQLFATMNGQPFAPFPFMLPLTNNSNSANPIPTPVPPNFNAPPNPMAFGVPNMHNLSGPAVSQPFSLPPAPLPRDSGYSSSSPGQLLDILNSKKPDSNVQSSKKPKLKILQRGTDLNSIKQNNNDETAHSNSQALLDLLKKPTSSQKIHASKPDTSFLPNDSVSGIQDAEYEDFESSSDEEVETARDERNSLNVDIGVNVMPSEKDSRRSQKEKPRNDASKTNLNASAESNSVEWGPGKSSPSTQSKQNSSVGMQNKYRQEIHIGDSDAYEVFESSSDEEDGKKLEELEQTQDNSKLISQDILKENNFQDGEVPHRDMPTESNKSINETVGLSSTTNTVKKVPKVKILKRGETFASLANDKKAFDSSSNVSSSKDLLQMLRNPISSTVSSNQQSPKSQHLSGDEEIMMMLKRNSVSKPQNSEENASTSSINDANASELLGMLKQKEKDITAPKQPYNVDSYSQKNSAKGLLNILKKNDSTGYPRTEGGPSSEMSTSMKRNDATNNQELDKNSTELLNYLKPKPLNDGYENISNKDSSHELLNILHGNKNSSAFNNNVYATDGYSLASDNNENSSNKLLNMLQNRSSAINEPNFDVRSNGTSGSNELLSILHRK

Measured: binding

B1: Scd6 (protein, UniProt P45978 1-349)
chain: MSQYIGKTISLISVTDNRYVGLLEDIDSEKGTVTLKEVRCFGTEGRKNWGPEEIYPNPTVYNSVKFNGSEVKDLSILDANINDIQPVVPQMMPPASQFPPQQAQSPPQAQAQAHVQTNPQVPKPESNVPAAVAGYGVYTPTSTETATASMNDKSTPQDTNVNSQSRERGKNGENEPKYQRNKNRSSNRPPQSNRNFKVDIPNEDFDFQSNNAKFTKGDSTDVEKEKELESAVHKQDESDEQFYNKKSSFFDTISTSTETNTNMRWQEEKMLNVDTFGQASARPRFHSRGLGRGRGNYRGNRGNRGRGGQRGNYQNRNNYQNDSGAYQNQNDSYSRPANQFSQPPSNVEF
binds: all assays above
